Assay results: the supplement of paper PMC12823440, “Inhibitors supercharge kinase turnover through native proteolytic circuits” (Nature, 2025)
Some of the results follow. The calls rarely recur for the same compound in another form.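 Kinases were expressed as nanoluciferase fusions in K562 cells and luminescence was read every 4 h between 2 and 18 h as percent of control, DMSO set to 100% and a positive control to 0%. A time point counts as decreased when the signal drops significantly (2 sigma). The hit call is the authors' own, does not follow from the count of time points alone, and its rule is not shown.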

The chains behind the UniProt entries cited, without tags or fusion partners.
UniProt P06241, whole entry, looked up: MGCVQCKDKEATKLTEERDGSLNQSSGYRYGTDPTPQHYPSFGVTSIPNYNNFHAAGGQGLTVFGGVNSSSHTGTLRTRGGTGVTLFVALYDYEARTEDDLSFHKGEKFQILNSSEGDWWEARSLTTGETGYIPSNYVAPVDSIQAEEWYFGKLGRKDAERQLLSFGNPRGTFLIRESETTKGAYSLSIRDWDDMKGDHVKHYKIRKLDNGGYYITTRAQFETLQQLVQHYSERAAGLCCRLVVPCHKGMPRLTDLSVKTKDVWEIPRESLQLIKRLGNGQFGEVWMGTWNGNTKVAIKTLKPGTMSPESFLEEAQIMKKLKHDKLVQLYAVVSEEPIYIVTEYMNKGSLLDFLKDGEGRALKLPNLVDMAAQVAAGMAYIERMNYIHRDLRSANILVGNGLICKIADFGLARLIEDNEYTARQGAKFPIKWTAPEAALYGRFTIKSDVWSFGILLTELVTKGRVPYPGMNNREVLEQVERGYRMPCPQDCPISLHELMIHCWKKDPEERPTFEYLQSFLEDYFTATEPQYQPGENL

biological target: FYN (UniProt P06241); assay: kinase-Nluc reporter destabilization hit call (1 = scored as downregulated) (binary); higher = compound decreases kinase abundance; details: K562; 2-18 h

kinase-Nluc reporter destabilization hit call, inactive:
CC(C)Cn1ncc2cc(Oc3ccc(F)cc3F)c(C(=O)NCCN(C)C)cc21 [p38α inhibitor 1] (10 µM) 0, CNc1cc2c(Nc3cccc(Br)c3)ncnc2cn1 (10 µM) 0, CN1C(=O)[C@@H](NC(=O)c2cc(Cc3ccccc3)on2)COc2ccccc21 (10 µM) 0, CC(C1CC1)n1cnc2c(NCc3cccc(C(F)(F)F)c3)nc(NCCN(C)C)nc21 (configuration not stated) (10 µM) 0, Cc1n[nH]c2ncc(C(=O)N3CCC[C@H]3c3ccc(Cl)cc3)cc12 (10 µM) 0, Oc1ccc(-c2cnc3ccc(NCc4ccco4)nn23)cc1 [IRAK inhibitor 2] (2.5 µM) 0, C[C@H](Nc1cc2c(-c3ccc4c(c3)OCO4)noc2cn1)c1ccccc1 (10 µM) 0, Nc1ccc(C(=O)Nc2cccc(-c3nc(N4CCOCC4)c4oc5ncccc5c4n3)c2)cn1 (10 µM) 0, CCOC(=O)c1c(N2CCc3ccc(OC)cc3C2)oc(C=C2C=Nc3ncccc32)c1O (10 µM) 0, Cc1ncc(-c2cc(F)c(O)c(F)c2)cc1-c1cc(F)c(O)c(F)c1 (10 µM) 0, N=C(NC(=N)N1CCCC1)Nc1ccc(OC(F)(F)F)cc1 (10 µM) 0, CC1(C)CN(C(=O)c2ccc(-c3cccc4nc(NC(=O)C5CC5)nn34)cc2)C1 [Solcitinib] (10 µM) 0, COc1c(O)cc(O)c2c(=O)cc(-c3ccccc3)oc12 [Wogonin] (10 µM) 0, O=C(NC[C@H](O)CO)c1ccncc1Nc1ccc(I)cc1F [Pimasertib] (10 µM) 0, N#Cc1cnc(Nc2cc(NC[C@H]3CNCCO3)c(C(F)(F)F)cn2)cn1 (10 µM) 0, CCNC(=O)Nc1ccc(-c2nc3c(c(N4CCOC[C@@H]4C)n2)CCN(C2COC2)C3)cc1 (2.5 µM) 0, COc1cc2ncnc(Nc3cc(Br)c(O)c(Br)c3)c2cc1OC (2.5 µM) 0, Nc1ccc(-c2nc3ccc(-c4nc5ccc(N)cc5[nH]4)cc3[nH]2)cc1 (10 µM) 0, CCCCC(=O)OCC(=O)[C@]1(O)Cc2c(O)c3c(c(O)c2[C@@H](O[C@H]2C[C@H](NC(=O)C(F)(F)F)[C@H](O)[C@H](C)O2)C1)C(=O)c1c(OC)cccc1C3=O [Valrubicin] (10 µM) 0, Nc1[nH]nc2nnc(-c3c(-c4ccccc4)nn4ccccc34)cc12 (10 µM) 0, COc1cc2nc(NC3CC3)nc(NC3CCN(C(C)C)CC3)c2cc1OC (10 µM) 0, S=C(NCc1ccc2c(c1)OCO2)N1CCN(c2ncnc3c2oc2ccccc23)CC1 [Amuvatinib] (2.5 µM) 0, CC(=O)O[C@@H]1[C@@H](OC(C)=O)[C@@H](O)[C@H](Oc2c(-c3ccc(O)cc3)oc3cc(O)cc(O)c3c2=O)O[C@H]1C (10 µM) 0, CC1=CC(=O)C(C(C)C)=C/C1=N/OC(=O)c1ccccc1C [Poloxin] (2.5 µM) 0, CO[C@@H]1[C@H](N(C)C(=O)c2ccccc2)C[C@H]2O[C@]1(C)n1c3ccccc3c3c4c(c5c6ccccc6n2c5c31)C(=O)NC4 [Midostaurin] (2.5 µM) 0, Fc1ccc(Cl)cc1-c1nc(Nc2ccncc2)c2nccnc2n1 (10 µM) 0, CN1CCC(Nc2ccc(C(=O)Nc3cc(-c4ccc5c(c4)OCO5)[nH]n3)cc2)CC1 (10 µM) 0, CN1CCC(Nc2nc(Nc3ccc(Oc4ccccc4)cc3)c3c(=O)[nH]cc(Br)c3n2)CC1 (2.5 µM) 0, O=C(COc1ccc(Cl)cc1)NC1CCC(NC(=O)COc2ccc(Cl)cc2)CC1 (stereo not drawn) [ISRIB (trans-isomer)] (10 µM) 0, Cc1ccc(C2CC(=O)NC(SCC(=O)Nc3nccs3)=C2C#N)cc1 (configuration not stated) [Necrostatin-34] (10 µM) 0, CCCCNc1ncc(C(=O)NCc2ccc(-n3ccnc3)cc2)c(NC2CCC(O)CC2)n1 (configuration not stated) (10 µM) 0, O=C1NC(=O)C(Cc2c[nH]c3c(Cl)cccc23)N1 (configuration not stated) [Necroptosis-IN-1] (10 µM) 0, O=C1C=CC2=C3c4cc(O)c(O)cc4CC3(O)COC2=C1O (configuration not stated) [Hematein] (10 µM) 0, NC(=O)c1cnc(N[C@@H]2CCCC[C@@H]2N)nc1Nc1cccc(-n2nccn2)c1 (2.5 µM) 0, COc1cc2nc(-c3cc(F)ccc3O)nc(N[C@@H]3CNC[C@H]3C(C)(C)O)c2cc1OC (2.5 µM) 0, CN1CCN(Cc2ccc(-c3cn(C4CCC(O)CC4)c4nc(NCCC5CC5)ncc34)cc2)CC1 (configuration not stated) (2.5 µM) 0, O=S(=O)(c1ccc(O)cc1O)N1Cc2cc(O)cc(O)c2C1 (10 µM) 0
